The values that follow come from the supplement of paper PMC10849652.

The chains behind the UniProt entries cited, without tags or fusion partners. Where a name states a change or a piece, a line headed by the entry shows the natural chain unless it says otherwise.
UniProt Q15041, whole entry, looked up: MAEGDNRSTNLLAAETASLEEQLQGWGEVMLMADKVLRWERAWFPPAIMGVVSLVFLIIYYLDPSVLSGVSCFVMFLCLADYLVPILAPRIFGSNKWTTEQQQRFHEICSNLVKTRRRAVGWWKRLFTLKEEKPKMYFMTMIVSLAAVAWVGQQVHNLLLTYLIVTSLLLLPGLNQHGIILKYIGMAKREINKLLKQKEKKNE
UniProt Q2TAZ0: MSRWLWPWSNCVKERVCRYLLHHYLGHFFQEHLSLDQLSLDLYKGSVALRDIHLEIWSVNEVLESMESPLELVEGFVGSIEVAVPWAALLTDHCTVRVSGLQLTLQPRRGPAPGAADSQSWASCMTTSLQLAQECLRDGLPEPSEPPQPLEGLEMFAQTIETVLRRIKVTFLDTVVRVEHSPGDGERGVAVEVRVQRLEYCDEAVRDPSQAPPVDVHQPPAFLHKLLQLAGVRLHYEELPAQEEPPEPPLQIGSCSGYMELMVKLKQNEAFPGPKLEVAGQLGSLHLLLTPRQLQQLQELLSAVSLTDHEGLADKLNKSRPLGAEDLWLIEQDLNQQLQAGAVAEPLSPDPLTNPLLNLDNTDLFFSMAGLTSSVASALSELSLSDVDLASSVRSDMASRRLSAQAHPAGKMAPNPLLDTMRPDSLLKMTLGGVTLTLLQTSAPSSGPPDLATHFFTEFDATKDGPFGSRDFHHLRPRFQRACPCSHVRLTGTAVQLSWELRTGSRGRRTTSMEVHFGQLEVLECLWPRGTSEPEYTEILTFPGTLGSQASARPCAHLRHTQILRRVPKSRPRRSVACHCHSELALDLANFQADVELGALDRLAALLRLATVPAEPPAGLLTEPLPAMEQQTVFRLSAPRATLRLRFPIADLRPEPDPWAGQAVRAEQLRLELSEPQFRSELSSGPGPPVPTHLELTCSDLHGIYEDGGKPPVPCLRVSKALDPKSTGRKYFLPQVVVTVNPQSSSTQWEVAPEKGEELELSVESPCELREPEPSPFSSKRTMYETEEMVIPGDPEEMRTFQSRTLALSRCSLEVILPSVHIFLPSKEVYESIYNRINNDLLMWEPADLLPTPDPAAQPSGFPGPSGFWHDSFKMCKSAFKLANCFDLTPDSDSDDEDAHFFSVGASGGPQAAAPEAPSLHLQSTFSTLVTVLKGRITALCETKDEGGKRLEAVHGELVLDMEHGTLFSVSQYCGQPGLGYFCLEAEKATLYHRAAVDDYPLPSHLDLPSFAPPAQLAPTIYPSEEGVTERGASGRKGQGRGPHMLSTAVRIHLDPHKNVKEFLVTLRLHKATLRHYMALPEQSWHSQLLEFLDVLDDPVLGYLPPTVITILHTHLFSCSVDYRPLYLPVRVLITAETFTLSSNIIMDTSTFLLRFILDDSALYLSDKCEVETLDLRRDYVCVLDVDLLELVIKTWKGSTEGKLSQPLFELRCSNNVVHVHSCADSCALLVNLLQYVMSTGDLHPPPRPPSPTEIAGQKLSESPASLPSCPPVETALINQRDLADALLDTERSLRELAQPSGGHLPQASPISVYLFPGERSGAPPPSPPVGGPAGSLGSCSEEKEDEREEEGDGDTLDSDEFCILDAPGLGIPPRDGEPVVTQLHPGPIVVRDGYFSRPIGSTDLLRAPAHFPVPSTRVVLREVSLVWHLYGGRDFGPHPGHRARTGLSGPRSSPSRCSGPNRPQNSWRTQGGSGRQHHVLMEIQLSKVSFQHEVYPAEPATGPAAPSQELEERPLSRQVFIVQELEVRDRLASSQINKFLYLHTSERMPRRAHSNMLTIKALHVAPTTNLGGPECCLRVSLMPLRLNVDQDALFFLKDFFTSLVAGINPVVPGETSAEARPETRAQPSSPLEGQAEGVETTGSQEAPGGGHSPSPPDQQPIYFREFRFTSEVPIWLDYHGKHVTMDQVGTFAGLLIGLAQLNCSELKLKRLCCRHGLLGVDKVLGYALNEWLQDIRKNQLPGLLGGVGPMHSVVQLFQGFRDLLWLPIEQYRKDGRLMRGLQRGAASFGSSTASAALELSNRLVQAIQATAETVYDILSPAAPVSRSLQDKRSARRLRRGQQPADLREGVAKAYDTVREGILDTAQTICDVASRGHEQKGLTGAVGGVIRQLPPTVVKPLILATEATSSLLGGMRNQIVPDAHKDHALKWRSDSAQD
UniProt P56134: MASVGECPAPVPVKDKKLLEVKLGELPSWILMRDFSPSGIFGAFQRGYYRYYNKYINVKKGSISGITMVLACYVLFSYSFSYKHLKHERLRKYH
UniProt P04424, whole entry, looked up: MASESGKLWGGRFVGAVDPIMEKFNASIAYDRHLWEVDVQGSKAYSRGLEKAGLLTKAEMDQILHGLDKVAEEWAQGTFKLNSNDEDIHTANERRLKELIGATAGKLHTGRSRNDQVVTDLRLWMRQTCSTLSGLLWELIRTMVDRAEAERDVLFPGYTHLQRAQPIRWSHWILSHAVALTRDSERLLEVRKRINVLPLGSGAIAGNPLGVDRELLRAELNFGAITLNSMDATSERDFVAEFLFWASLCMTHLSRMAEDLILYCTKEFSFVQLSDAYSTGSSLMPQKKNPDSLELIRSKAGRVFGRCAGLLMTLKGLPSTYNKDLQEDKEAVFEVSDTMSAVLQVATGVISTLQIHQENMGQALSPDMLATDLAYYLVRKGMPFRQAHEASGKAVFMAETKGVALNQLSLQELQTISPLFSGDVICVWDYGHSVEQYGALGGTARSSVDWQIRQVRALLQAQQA
UniProt P25705: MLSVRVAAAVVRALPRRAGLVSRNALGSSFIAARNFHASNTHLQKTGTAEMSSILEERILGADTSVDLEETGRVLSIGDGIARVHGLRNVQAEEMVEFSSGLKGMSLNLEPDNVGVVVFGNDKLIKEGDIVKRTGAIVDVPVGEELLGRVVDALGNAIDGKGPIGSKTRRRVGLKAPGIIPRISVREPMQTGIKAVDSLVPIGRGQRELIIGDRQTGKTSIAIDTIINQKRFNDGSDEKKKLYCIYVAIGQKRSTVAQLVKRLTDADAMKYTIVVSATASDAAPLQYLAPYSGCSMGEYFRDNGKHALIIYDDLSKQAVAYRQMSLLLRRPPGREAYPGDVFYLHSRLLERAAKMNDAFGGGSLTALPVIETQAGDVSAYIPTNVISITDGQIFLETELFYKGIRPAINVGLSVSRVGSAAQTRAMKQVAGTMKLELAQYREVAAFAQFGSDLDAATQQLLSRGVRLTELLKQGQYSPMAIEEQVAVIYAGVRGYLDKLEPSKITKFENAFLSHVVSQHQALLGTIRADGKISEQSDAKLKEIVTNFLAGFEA
UniProt Q8N5M1: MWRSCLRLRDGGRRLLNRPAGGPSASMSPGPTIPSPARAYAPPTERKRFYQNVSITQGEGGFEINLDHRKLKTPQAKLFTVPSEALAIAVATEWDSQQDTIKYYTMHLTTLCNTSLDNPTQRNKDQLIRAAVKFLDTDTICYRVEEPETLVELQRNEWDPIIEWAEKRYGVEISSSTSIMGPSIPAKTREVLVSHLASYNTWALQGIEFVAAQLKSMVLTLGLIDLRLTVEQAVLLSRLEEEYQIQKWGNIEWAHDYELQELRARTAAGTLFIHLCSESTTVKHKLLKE
UniProt Q96BY7: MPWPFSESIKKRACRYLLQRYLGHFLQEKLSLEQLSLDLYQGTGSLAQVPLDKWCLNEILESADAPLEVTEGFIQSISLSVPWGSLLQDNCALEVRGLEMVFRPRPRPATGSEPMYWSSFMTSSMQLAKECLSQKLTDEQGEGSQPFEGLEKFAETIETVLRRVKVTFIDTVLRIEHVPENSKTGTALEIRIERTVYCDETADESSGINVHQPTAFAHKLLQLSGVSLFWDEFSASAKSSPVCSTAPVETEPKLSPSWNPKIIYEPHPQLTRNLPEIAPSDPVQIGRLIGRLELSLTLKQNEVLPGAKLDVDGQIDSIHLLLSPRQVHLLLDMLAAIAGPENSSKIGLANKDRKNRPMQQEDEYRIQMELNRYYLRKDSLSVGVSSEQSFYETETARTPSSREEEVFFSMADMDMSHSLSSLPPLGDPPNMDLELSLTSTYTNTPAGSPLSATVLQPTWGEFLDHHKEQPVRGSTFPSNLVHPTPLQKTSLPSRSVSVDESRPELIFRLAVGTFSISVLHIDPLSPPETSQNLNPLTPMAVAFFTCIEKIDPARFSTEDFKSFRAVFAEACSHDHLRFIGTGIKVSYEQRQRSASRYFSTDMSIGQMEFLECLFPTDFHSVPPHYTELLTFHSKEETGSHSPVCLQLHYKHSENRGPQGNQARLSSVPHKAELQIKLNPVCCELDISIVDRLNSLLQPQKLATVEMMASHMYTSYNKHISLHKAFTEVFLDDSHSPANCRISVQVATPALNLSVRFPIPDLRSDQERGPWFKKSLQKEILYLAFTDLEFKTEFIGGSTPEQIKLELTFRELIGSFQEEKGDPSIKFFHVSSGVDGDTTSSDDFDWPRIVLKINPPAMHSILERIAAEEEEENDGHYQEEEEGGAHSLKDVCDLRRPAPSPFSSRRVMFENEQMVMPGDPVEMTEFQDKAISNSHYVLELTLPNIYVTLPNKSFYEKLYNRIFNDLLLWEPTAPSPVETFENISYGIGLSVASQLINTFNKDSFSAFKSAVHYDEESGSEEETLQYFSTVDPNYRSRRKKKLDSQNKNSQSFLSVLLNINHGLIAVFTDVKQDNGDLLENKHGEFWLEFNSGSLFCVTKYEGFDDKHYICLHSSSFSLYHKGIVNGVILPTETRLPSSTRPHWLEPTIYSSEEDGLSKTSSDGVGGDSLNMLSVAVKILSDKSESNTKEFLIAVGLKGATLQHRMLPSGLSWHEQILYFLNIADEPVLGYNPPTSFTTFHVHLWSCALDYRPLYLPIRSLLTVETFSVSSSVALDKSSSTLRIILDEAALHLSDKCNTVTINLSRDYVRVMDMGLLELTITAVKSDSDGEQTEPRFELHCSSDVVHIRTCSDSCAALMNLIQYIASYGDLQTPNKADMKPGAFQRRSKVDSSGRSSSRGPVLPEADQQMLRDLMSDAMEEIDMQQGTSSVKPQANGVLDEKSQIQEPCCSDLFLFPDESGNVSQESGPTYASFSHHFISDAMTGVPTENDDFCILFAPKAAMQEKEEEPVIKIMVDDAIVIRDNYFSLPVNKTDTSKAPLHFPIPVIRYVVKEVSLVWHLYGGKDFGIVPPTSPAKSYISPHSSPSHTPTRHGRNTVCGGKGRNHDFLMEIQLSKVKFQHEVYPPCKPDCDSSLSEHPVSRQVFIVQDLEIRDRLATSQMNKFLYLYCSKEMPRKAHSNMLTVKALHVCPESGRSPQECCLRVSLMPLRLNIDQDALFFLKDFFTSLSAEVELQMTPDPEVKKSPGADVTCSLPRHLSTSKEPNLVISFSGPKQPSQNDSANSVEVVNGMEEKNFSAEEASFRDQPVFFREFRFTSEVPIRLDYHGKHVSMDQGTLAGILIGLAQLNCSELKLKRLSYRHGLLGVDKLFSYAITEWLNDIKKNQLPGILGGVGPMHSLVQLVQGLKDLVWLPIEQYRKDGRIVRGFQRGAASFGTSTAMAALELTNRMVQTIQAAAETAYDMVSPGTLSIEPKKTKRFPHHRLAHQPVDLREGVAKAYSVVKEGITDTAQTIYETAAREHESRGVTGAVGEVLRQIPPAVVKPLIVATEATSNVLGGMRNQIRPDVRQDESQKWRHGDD
UniProt Q92747, whole entry, looked up: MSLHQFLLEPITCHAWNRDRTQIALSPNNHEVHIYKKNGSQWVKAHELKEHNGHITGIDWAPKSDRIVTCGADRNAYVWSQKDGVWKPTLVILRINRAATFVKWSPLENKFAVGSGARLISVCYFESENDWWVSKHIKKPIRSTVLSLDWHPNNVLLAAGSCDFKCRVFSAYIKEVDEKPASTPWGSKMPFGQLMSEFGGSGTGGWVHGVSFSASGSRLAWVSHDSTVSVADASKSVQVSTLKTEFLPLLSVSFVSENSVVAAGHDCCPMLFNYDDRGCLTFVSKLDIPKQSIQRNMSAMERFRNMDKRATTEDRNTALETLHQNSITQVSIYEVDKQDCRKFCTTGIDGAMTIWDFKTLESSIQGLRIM
UniProt P56381: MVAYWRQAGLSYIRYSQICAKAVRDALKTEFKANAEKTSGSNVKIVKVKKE
UniProt O95260: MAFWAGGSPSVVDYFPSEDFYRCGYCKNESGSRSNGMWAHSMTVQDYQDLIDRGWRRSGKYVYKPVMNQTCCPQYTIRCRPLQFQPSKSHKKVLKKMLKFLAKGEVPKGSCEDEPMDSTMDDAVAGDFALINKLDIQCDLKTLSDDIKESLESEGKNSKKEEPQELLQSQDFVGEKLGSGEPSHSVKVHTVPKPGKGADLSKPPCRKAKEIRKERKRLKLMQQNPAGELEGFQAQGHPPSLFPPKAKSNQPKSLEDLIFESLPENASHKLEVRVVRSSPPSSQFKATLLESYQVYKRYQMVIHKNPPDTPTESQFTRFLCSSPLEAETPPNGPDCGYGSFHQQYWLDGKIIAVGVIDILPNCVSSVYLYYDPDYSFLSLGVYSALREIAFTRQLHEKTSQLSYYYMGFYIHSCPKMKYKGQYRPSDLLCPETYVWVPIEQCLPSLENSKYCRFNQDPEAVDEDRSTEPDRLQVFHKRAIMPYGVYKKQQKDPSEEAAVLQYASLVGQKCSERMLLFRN

The other results are listed elsewhere or left out.

Compound in the experiment: CC1=CC=C(C=C1)SC2=C3C=C(SC3=CN=C2)C(=O)N
Description: log2 fold change, soluble protein after heating vs DMSO (PISA); higher = thermal stabilisation; K562 cells, 10 uM, 30 min; active = over 0.2 and 3.5 SD of the protein, either way, in both replicates (recomputed). The essentials:
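Soluble protein was defined as the supernatant after 21,000xg for 90 min. It came from K562 cells at 2×10^6 cells/mL given 10 μM compound for 30 min, heated in aliquots for 3 min across 48°C-58°C, pooled, and extracted in PBS with 0.5% NP-40 at 4°C, and was quantified by TMTpro 16plex LC-MS/MS with equalised channel sums. Thermal stability against control samples, from duplicates, is reported as log2 fold change.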
In the case of ATP7A isoform 3 (UniProt Q04656), the log2 fold change was inactive: 0.011.

In the case of ARPC1B (UniProt O15143), the log2 fold change is inactive: 0.063.

As for ASAP1 isoform 2 (UniProt Q9ULH1), the log2 fold change was inactive: -0.015.

In the case of ATG3 (UniProt Q9NT62), the log2 fold change is inactive: -0.019.

In the case of ARL6IP1 (UniProt Q15041), the log2 fold change was inactive: 0.532.

Take ATG2A isoform 3 (UniProt Q2TAZ0): the log2 fold change is inactive: 0.027.

For ARRB2 isoform 4 (UniProt P32121), the log2 fold change was inactive: 0.024.

As to ATP5MF (UniProt P56134), the log2 fold change is inactive: 0.005.

Regarding ASPM (UniProt Q8IZT6), the log2 fold change was inactive: -0.003.

On to ATP6V1A (UniProt P38606), for which the log2 fold change is inactive: -0.021.

Regarding ATP11B (UniProt Q9Y2G3), the log2 fold change is inactive: -0.008.

As to ASL (UniProt P04424), the log2 fold change was inactive: 0.02.

With ATP6AP2 (UniProt O75787), the log2 fold change is inactive: -0.012.

Consider ASAH1 isoform 2 (UniProt Q13510), for which the log2 fold change was inactive: 0.041.

As for ATP5F1A (UniProt P25705), the log2 fold change is inactive: -0.029.

For the target ARIH2 (UniProt O95376), the log2 fold change was inactive: -0.036.

For ARPC3 (UniProt O15145), the log2 fold change was inactive: 0.004.

Turning to ATPAF2 (UniProt Q8N5M1), the log2 fold change was inactive: -0.059.

As for ATG2B (UniProt Q96BY7), the log2 fold change was inactive: 0.11.

Consider ARPC1A (UniProt Q92747), for which the log2 fold change was inactive: 0.016.

Take ATP5F1E (UniProt P56381): the log2 fold change was inactive: -0.009.

Turning to ATE1 isoform 2 (UniProt O95260), the log2 fold change was inactive: 0.059.
